Laboratory results: PubChem BioAssay AID540256 (National Center for Advancing Translational Sciences (NCATS), 2011)
Screen size: about 300,000 compounds; about 3,700 (1.2%) were called active. Inconclusive means that the source gave no clear call. Such entries were picked first, then a sample of the others. The call rests on the fitted dose curve; tested in HEK293 cells. Potencies beside an inconclusive call are fits to weak or partial responses and may not hold up.

test: qHTS for Inhibitors of binding or entry into cells for Lassa Virus; conditions: Lassa virus pseudotype entry inhibition, cell reporter; series mostly up to 37.9 µM; further: nearly all actives have a fitted effect of over 50% in size
Potency means the concentration at half of the fitted maximal effect.

Row | Structure (SMILES) | Potency
1 | O=C(CN1CCN(c2ccc(F)cc2)CC1)Nc1ccccc1[N+](=O)[O-] | inconclusive: 11.2 µM [inhibitor, partial curve, poor fit]
2 | CC(C)N=c1scc(-c2cccs2)n1/N=C/c1ccc(O)c(O)c1O | inconclusive: 25.1 µM [inhibitor, single point]
3 | CCC(=O)Nc1cccc(NC(=S)NC(=O)c2ccc(Cl)cc2Cl)c1 | inconclusive: 1.58 µM [activator, partial curve, poor fit]
4 | c1ccc(C(c2ccccc2)N2CCN(c3nc4ccccc4n4cnnc34)CC2)cc1 | inconclusive: 7.08 µM [inhibitor, full curve, poor fit]
5 | O=c1oc2ccccc2c2c1SC(C(F)(F)F)C2 (configuration not stated) | inconclusive: 31.6 µM [activator, single point]
6 | Cc1cc(C)nc(NN=C(c2ccccc2)c2ccccc2)n1 | inconclusive: 14.6 µM [inhibitor, partial curve, poor fit]
7 | CCOc1cc(CNCCc2ccc(S(N)(=O)=O)cc2)ccc1OCc1ccccc1 | inconclusive: 23.1 µM [inhibitor, partial curve, poor fit]
8 | CCOc1ccc(Cl)cc1CSc1ncn[nH]1 | inactive
9 | Cc1ccc(Cl)cc1N1CCN(C(=O)C2CCN(S(=O)(=O)c3cnc[nH]3)CC2)CC1 | inactive
10 | CCC(C)NCCOCCOc1ccccc1-c1ccccc1 (configuration not stated) | inconclusive: 29.1 µM [inhibitor, single point]
11 | Cc1ccc(NC(=O)CN2C(=O)C(c3ccc(F)cc3)=NC23CCCCCC3)c(C)c1 | inconclusive: 11.2 µM [inhibitor, single point]
12 | C/C(=N\NC(=O)CCCNc1ccc(C)cc1)c1ccccn1 | inactive
13 | CNC(=O)CCN(Cc1ccco1)S(=O)(=O)c1ccc(OC)c(OC)c1 | inactive
14 | Cn1c(CS/C(N)=N/N=C/c2ccccc2)c(Br)c(=O)n1-c1ccccc1 | inconclusive: 5.62 µM [inhibitor, single point]
15 | Cc1ccc(C)c(N2CCN(C(=O)C3CCC(CNS(=O)(=O)c4cccs4)CC3)CC2)c1 (configuration not stated) | inconclusive: 12.6 µM [inhibitor, single point]
16 | O=C(NNC(=O)C1CCN(S(=O)(=O)c2ccccc2C(F)(F)F)CC1)c1ccccc1O | inconclusive: 1.41 µM [activator, partial curve, poor fit]
17 | Cc1ccc(NC(=O)C(=O)NC2CCCCC2)cc1 | inactive
18 | COc1ccc(-c2cc(C(F)(F)F)n3nc(C)c(-c4ccccc4)c3n2)cc1OC | inactive
19 | Cn1c(-c2c(N)n(CCCc3ccccc3)c3nc4ccccc4nc23)nc2ccccc21 | inconclusive: 32.6 µM [inhibitor, single point]
20 | Cc1ccccc1CN1CCN(S(=O)(=O)c2ccc(Cl)s2)CC1 | inactive
21 | COc1ccc(N(C(=O)CNC(=O)c2ccco2)C(C(=O)NC2CCCC2)c2ccco2)cc1 (configuration not stated) | inactive
22 | Cc1cc(C)cc(NC(=O)Cn2nnc(-c3ccccc3F)n2)c1 | inactive
23 | COc1ccc(CCC(C)NCC(C)c2ccccc2)cc1 (configuration not stated) | inconclusive: 28.2 µM [inhibitor, single point]

Part of the list above in order of molar mass, rising.
Row | Structure (SMILES) | Potency
17 | Cc1ccc(NC(=O)C(=O)NC2CCCCC2)cc1 | inactive
20 | Cc1ccccc1CN1CCN(S(=O)(=O)c2ccc(Cl)s2)CC1 | inactive
3 | CCC(=O)Nc1cccc(NC(=S)NC(=O)c2ccc(Cl)cc2Cl)c1 | inconclusive: 1.58 µM [activator, partial curve, poor fit]
19 | Cn1c(-c2c(N)n(CCCc3ccccc3)c3nc4ccccc4nc23)nc2ccccc21 | inconclusive: 32.6 µM [inhibitor, single point]
14 | Cn1c(CS/C(N)=N/N=C/c2ccccc2)c(Br)c(=O)n1-c1ccccc1 | inconclusive: 5.62 µM [inhibitor, single point]
9 | Cc1ccc(Cl)cc1N1CCN(C(=O)C2CCN(S(=O)(=O)c3cnc[nH]3)CC2)CC1 | inactive

The list goes on:

Row | Structure (SMILES) | Potency
24 | O=C(Nc1cccnc1)Nc1cccc([N+](=O)[O-])c1 | inactive
25 | CCOC(=O)C1=NOC2C(=O)N(c3ccc(Cl)cc3Cl)C(=O)C12 (configuration not stated) | inactive
26 | O=C(COC(=O)/C=C/c1ccco1)Nc1cccc([N+](=O)[O-])c1 | inconclusive: 1.26 µM [inhibitor, partial curve, poor fit]
27 | CC1(C)C2CCC(C2)C1(C)NC(=O)CN1CCN(Cc2ccccc2)CC1 (configuration not stated) | inactive
28 | C/C(=N\NS(=O)(=O)c1ccc(Cl)cc1)c1ccc(NC(=O)c2ccco2)cc1 | inconclusive: 0.092 µM [inhibitor, full curve, poor fit]
29 | O=C(NC1CC1)c1cccc(NC(=O)C2CCCCC2)c1 | inconclusive: 17.7 µM [activator, partial curve, poor fit]
30 | CC(C)C(OC(=O)CN1C(=O)c2ccccc2C1=O)C(=O)NC1CCCCC1 (configuration not stated) | inconclusive: 3.16 µM [inhibitor, single point]
31 | CCCCCCc1c(C)c2c(cc(C)c3c(C)coc32)oc1=O | inconclusive: 12.6 µM [activator, partial curve, poor fit]
32 | CS(=O)(=O)N1N=C(c2ccc(Br)cc2)CC1c1ccc2c(c1)OCO2 (configuration not stated) | inconclusive: 0.0461 µM [activator, full curve, poor fit]
33 | CCOC(=O)c1ccccc1NC(=O)CN(c1ccccc1)S(=O)(=O)c1ccc(OCC)cc1 | inactive
34 | Oc1ccc(N2CCN(C(=S)NCCc3ccccc3)CC2)cc1 | inconclusive: 25.1 µM [inhibitor, partial curve, poor fit]
35 | Nc1nc(-c2cccnc2)nc2sc3c(c12)CCCC3 | inconclusive: 6.31 µM [activator, partial curve, poor fit]
36 | COc1cccc(-c2cc(N3C(=O)Nc4ccccc4N3O)n[nH]2)c1 | inconclusive: 35.5 µM [inhibitor, partial curve, poor fit]
37 | CCOC(CNCc1cc(C)c2[nH]c3ccccc3c2c1C)OCC | inconclusive: 22.4 µM [inhibitor, single point]
38 | CCn1c(=O)c(C(=O)CN2c3ccccc3CC2C)c(N)n(Cc2ccccc2)c1=O (configuration not stated) | inconclusive: 17.8 µM [inhibitor, single point]
39 | CC1(C)CC2CC(C)(CN2C(=S)Nc2ccccc2)C1 (configuration not stated) | inactive
40 | CC(=O)N1CCN(C(=O)CCc2nc3ccccc3c(=O)[nH]2)CC1 | inactive
41 | COc1cccc(NC(=O)C2CCCN(c3ncnc4onc(-c5ccc(F)cc5)c34)C2)c1 (configuration not stated) | inactive
42 | O=C1CCC2(CC1)NC(=O)N(c1ccccc1)N2 | inconclusive: 11.2 µM [inhibitor, single point]
43 | Cc1ccccc1-c1nnc(SCc2ccc(F)cc2)o1 | inconclusive: 16.4 µM [activator, partial curve, poor fit]
44 | CCc1ccc2c(CC(=O)Nc3nnc(C4CC4)s3)coc2c1 | inconclusive: 12.6 µM [inhibitor, partial curve, poor fit]
45 | CCOC(=O)C1(CCOc2ccccc2)CCN(Cc2cnc(C)s2)CC1 | inconclusive: 5.01 µM [inhibitor, full curve, poor fit]
46 | COc1ccc(Cn2c(O)c(C=Nc3ccccc3)c3ccccc3c2=O)cc1 | inconclusive: 5.62 µM [inhibitor, full curve, poor fit]

Row | Structure (SMILES) | Potency
47 | CCN1CCc2c(C#N)c(N3CCCCC3)nc(NCc3ccccc3)c2C1 | inactive
48 | CC(=NC1CCCC1)c1c(C)[nH]n(-c2nc3ccccc3s2)c1=O | inconclusive: 16.4 µM [inhibitor, single point]
49 | CCOc1ccc(NC(=O)NCCN2CCN(c3cc(Cl)ccc3C)CC2)cc1 | inconclusive: 14.1 µM [activator, single point]
50 | CCC1CCCCN1CCCNC(=O)c1ccc2c(c1)c(C)c(C)n2CC (configuration not stated) | inconclusive: 35.5 µM [inhibitor, single point]
51 | CCOC(=O)c1ccc(CN(Cc2ccccc2)S(=O)(=O)c2cccc([N+](=O)[O-])c2)cc1 | inconclusive: 0.891 µM [inhibitor, full curve, poor fit]
52 | O=C(Nc1nc(-c2ccc(F)cc2)cs1)C1CCCO1 (configuration not stated) | inconclusive: 4.47 µM [inhibitor, single point]
53 | O=C(CCn1cccc1)NCc1ccccc1 | inactive
54 | Cc1ccc(C)c(NC(=O)c2ccccc2NS(=O)(=O)c2cc([N+](=O)[O-])ccc2C)c1 | inconclusive: 4.11 µM [inhibitor, full curve, poor fit]
55 | COc1ccc(NC(=O)CN(C)CC(=O)Nc2cccc(S(=O)(=O)N(C)c3ccccc3)c2)cc1 | inconclusive: 15.8 µM [inhibitor, single point]
56 | COc1ccc(CNC(=O)c2ccc(CN3C(=O)C(C)=C(c4ccc(C)cc4)S3(=O)=O)cc2)cc1 | inactive
57 | Cc1cc(O)c2c(C)c(CC(=O)NCc3ccccc3Cl)c(=O)oc2c1 | inactive
58 | CN(C)C(=S)NC(=S)Nc1ccc2ccccc2c1 | inconclusive: 11.2 µM [inhibitor, single point]
59 | O=C(CCl)Nc1ccc(N2CCCCCC2)cc1 | inconclusive: 12.6 µM [inhibitor, partial curve, poor fit]
60 | Cc1ccc(Cl)cc1N1CCN(c2nc3ccc(C(=O)c4ccccc4)cc3n3cnnc23)CC1 | inconclusive: 3.16 µM [inhibitor, single point]
61 | COc1ccc2cc3cc(C(=O)NC(C)C)oc3nc2c1 | inconclusive: 0.73 µM [activator, full curve, poor fit]
62 | COC(=O)c1ccc(-n2nnnc2SCC(=O)Nc2ccccc2OC)cc1 | inactive
63 | COc1ccc(-c2cn3ccsc3n2)cc1 | inconclusive: 35.5 µM [inhibitor, single point]
64 | Cc1ccc(NC(=O)c2c(NC(=O)CCC(=O)O)sc3c2CCCCC3)cc1 | inconclusive: 35.5 µM [inhibitor, single point]
65 | NS(=O)(=O)c1ccc(Nc2cc(-c3cccc(O)c3)[nH]n2)cc1 | inconclusive: 4.99 µM [activator, partial curve, poor fit]
66 | COc1cccc(C(c2nnnn2CCc2ccccc2)N2CCN(c3ccccc3)CC2)c1OC (configuration not stated) | inconclusive: 5.62 µM [inhibitor, partial curve, poor fit]
67 | COc1ccc(NC(=O)Cn2nnc(C(=O)NCc3ccccc3)c2N)c(OC)c1 | inconclusive: 16.4 µM [inhibitor, partial curve, poor fit]
